No constants are given. Whether binding was seen depends on the method and setting. Some results given as binding are weak or reduced against the parent protein; the word gives no strength. Where a sequence is shown, tags or fusion partners need not be part of it.
What was measured:
[1] = biological target: T1, REMORIN-… RECEPTOR 1 (RIR1) cytoplasmic domain, yeast two-hybrid fusion (Arabidopsis thaliana) (UniProt C0LGG9); test: two-hybrid
T1 sequence: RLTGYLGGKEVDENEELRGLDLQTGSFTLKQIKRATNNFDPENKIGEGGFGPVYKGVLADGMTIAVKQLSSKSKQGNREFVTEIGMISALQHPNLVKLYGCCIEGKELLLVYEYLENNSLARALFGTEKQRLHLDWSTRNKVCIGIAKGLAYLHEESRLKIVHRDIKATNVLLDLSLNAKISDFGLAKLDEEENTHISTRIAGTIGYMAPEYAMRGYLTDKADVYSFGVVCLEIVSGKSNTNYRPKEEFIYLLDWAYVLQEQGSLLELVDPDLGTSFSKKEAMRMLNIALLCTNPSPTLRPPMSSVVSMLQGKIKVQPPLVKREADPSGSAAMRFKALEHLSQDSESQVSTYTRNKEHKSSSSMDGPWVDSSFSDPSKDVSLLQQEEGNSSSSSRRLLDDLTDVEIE

[2] = biological target: REM1.3, yeast two-hybrid fusion (Arabidopsis thaliana) (UniProt O80837); test: two-hybrid

binding [1]: no binding | binding [2]: binds
B1: REM1.3, yeast two-hybrid fusion (protein, UniProt O80837 1-190)
chain: MAEEQKTSKVDVESPAVLAPAKEPTPAPVEVADEKIHNPPPVESKALAVVEKPIEEHTPKKASSGSADRDVILADLEKEKKTSFIKAWEESEKSKAENRAQKKISDVHAWENSKKAAVEAQLRKIEEKLEKKKAQYGEKMKNKVAAIHKLAEEKRAMVEAKKGEELLKAEEMGAKYRATGVVPKATCGCF

— doi:10.1101/2021.01.28.428596
